Assay results as given in patent US10183015B2, “Heterocyclic compounds and methods of use” (Medivation Technologies LLC, priority 2015, dated 2019).
At least one compound was matched to its structure with a doubt left.

How the values were obtained:
[1] = system: diet-induced NASH obese insulin resistant mice; assay: DIN mouse model: liver oil red O staining (% labeling); type: in vivo; conditions: 20 mg/kg, 70 days
Description: (§1) Male C57Bl/6J mice (8 weeks old) were housed in enriched ventilated cages (31×12.5×12.7 cm) throughout the experimental phase. Animals' cages litters were changed at least once a week. Animal were housed 5 per cage on inverted 12-hour light cycle (at 09:00 am lights off), 22±2° C. and 55±10% relative humidity. The acclimation period was 20 days. During the acclimation period, all mice were fed a standard diet (RM1 (E) 801492, SDS) and tap water ad libitum. After the acclimation period, mice were fed with the DIN diet (60% fat, cholesterol enriched) and fructose-enriched tap water ad libitum until the end of the experiment.
(§2) At 6 weeks of diet, mice were 4-hour fasted (09:00 am to 1:00 pm) and blood (150 μl/EDTA) was collected at 01:00 pm by retro-orbital bleeding under isoflurane anesthesia. Mice were then allocated in 2 homogenous groups (n=12/group) according to their plasma levels of ALT (average levels: 685U/L), AST (average levels: 627U/L) and HOMA-IR index (average value: 4.7), into 2 homogenous groups (see values at day 0 in Tables 15A and 15B ALT/AST and Tables 16A and 16B for HOMA-IR). Mice were then treated once daily by oral gavage with vehicle (Group 1) or Compound #37 at 20 mg/kg (Group 2) for 70 days.
Slides having a single hepatic lobe section stained with H&E and […] were digitized using a Nanozoomer from Hamamatsu. Sections were evaluated with knowledge of groups. […]

[2] = system: diet-induced NASH obese insulin resistant mice; assay: DIN mouse model: plasma lipid levels; type: in vivo; conditions: 20 mg/kg, end of the treatment period
Description: as §1, §2
To investigate whether Compound #37 improves pre-existing steatosis/NASH pathology, a study was conducted using a 16-week diet-induced NASH mouse model. […]

[3] = system: healthy rats; assay: 28-day repeat-dose toxicity study in healthy rats: liver neutral lipids (Oil Red O) and glycogen; type: in vivo, rat
[4] = system: ob/ob mice; assay: ob/ob mice: liver triglycerides, fatty acids, total cholesterol; type: in vivo, mouse; conditions: 5 mg/kg p.o. daily, 8 weeks
Description: (§3) Groups of mice were either untreated (group 1) or treated for 8 weeks with vehicle (group 2), or with Compound #37 at 5 mg/kg (group 3), 10 mg/kg (group 4), or 20 mg/kg (group 5). Treatment was daily by oral gavage in vehicle (20% HPβCD). Values are presented as mean±standard error of the mean (sem). A t test was performed to compare the untreated group and the vehicle group. Then Compound #37-treated groups were compared to the vehicle-treated group with a 1-way ANOVA+Dunnett's post-test. […] For each test, a p<0.05 was considered significant. Of note, animal #39, group 1 was excluded from the statistical analysis, due to low values for all parameters measured. Some other values were considered as out-liners and excluded from the statistical analysis when the value was far below the mean minus 2 SD. Excluded values are marked with an asterisk in Tables 21-23.

[5] = system: diet-induced NASH obese insulin resistant mice; assay: DIN mouse model: NAS scores; type: in vivo; conditions: 20 mg/kg, 70 days
Description: (§4) NAFLD score analysis. A 0.5 cm^3 piece of liver was fixed in 10% formalin for 48-72h, stored in ethanol 70° at 4° C., and processed for eosin/hematoxylin staining and NAFLD score analysis. One section (thickness 3-5 μm) per block was deposited on Superfrost+slides for hematoxylin-eosin staining. Individual slides having a single hepatic lobe section stained with H&E were digitized using a Nanozoomer from Hamamatsu. Sections were evaluated with knowledge of groups. Each section was evaluated and individually scored. A NAFLD scoring system (NAS) adapted from Kleiner et al. (Hepatology 41, 1313-21, 2005), Wu et al. (BMC Vet. Res. 10, 162, 2014), and Lee et al. (J. Lipid Res. 48, 1885-96, 2007). A total of four variables were qualitatively assessed and ranked with a score: (1) hepatocellular steatosis, (2) liver inflammation, (3) lobular fibrosis, and (4) hepatocyte ballooning.
Male C57Bl/6J mice (8 weeks old) were housed in enriched ventilated cages (31×12.5×12.7 cm) throughout the experimental phase. Animals' cages litters were changed at least once a week. Animal were housed 5 per cage on inverted 12-hour light cycle (at 09:00 am lights off), 22±2° C. and 55±10% relative humidity. The acclimation period was 20 days. […]
Each section was evaluated and individually scored using the modified NAFLD scoring system described above.

[6] = system: FAS, SREBP1, ACC1, SCD1, HMG-CoAR, LDLR, SCAP, INSIG1, PERK, NRF2, MCP-1; assay: DIN mouse model: hepatic gene expression panel, summary statements; type: in vivo; conditions: 20 mg/kg, 70 days
[7] = system: ob/ob mice; assay: ob/ob mice: liver Oil Red O staining; type: in vivo, mouse; conditions: for Quantification of Oil Red O staining: not statistically significant
Description: as §3

[8] = system: 60% high fat Paigen diet induced NASH mouse model; assay: Short-term Paigen-diet NASH mouse model: NAFLD (NAS) score histopathology; type: in vivo; conditions: for grade 2 hepatocellular steatosis observed: 21 days
Description: To investigate whether Compound #37 prevents the development of pathology associated with NASH and steatosis in an acute exploratory disease model, a study was conducted using a diet-induced acute liver steatosis model in mice. […]
After acclimation, 8-week old male C57Bl/6J mice (Charles River) weighing about 25 g were randomized in 4 groups according their body weight and treated once daily around noon by oral gavage with vehicle, […] (2-hydroxypropyl)-β-cyclodextrin (HP-β-CD) (n=10); Group 2: Compound #37, 5 mg/kg (n=10) Group 3: Compound #37, 20 mg/kg (n=10) Group 4: Compound #37, 40 mg/kg (n=10). During the treatment period, body weight and food intake (measured over 24h) were measured 3 times per week and once a week, respectively. During the acclimation, all mice were fed a standard diet (Special Diets Services RM1 (E), product no. 801492) and tap water ad libitum. After the acclimation period, mice were fed until the end of the experiment with a 60% high fat Paigen diet (60 kcal % fat, 1.25% cholesterol, and 0.5% cholate; D11061901, Research Diet) and tap water ad libitum.
as §4

`CC(C)Cc1cc(-c2nc(-c3ccc(NS(=O)(=O)C(F)(F)F)cc3Cl)cs2)ccn1` [Compound 37, N-(3-chloro-4-(2-(2-isobutylpyridin-4-yl)thiazol-4-yl)phenyl)-1,1,1-trifluoromethanesulfonamide] was tested, and the “oil red O staining and % labeling” value [1] was “not changed”, the plasma lipids levels [2] was “no significant change” and the “neutral lipids in the liver (Oil Red O)” value ([3]; 50, 100/75, 200/150 mg/kg/day, 28 days, dose-dependent) was “trend towards decreased concentrations”. The liver glycogen ([3]; 28 days of treatment) was “without effects”, the “liver triglyceride and fatty acids levels” value [4] was “significantly decreased” and the “steatosis and hepatocyte ballooning scores” value [5] was “unchanged”. For the same compound, the “total NAS score” value [5] was “did not change”, the “Hepatic expression levels of FAS, SREBP1, ACC1, SCD1, HMG-CoAR, LDLR, SCAP, INSIG1, PERK, NRF2, MCP-1” value [6] was “not changed” and the “Quantification of Oil Red O staining” value ([7]; 5 mg/kg/day) was “decrease”. The “Oil Red O staining” value ([7]; 10 mg/kg/day) was “no reduction”, the “Quantification of Oil Red O staining” value ([7]; 20 mg/kg/day) was “decrease” and the hepatocellular ballooning ([8]; 5 mg/kg) was “inconsistently noted”. The “grade 2 hepatocellular steatosis observed” value ([8]; 5 mg/kg) was “one animal”, the hepatocellular ballooning ([8]; 20 mg/kg) was “absent” and the “grade 2 hepatocellular steatosis observed” value ([8]; 20 mg/kg) was “not in animals”. For the same compound, the liver inflammation ([8]; 40 mg/kg, day 9) was “no inflammation”.
